Laboratory results from the supplement of paper PMC10849652.
Some of the results follow.

Sequences of proteins named here, by UniProt entry; tags and fusion partners are left off. A change or cut given only in a name is not applied to a line headed by its entry.
UniProt Q9UKV8, whole entry, looked up: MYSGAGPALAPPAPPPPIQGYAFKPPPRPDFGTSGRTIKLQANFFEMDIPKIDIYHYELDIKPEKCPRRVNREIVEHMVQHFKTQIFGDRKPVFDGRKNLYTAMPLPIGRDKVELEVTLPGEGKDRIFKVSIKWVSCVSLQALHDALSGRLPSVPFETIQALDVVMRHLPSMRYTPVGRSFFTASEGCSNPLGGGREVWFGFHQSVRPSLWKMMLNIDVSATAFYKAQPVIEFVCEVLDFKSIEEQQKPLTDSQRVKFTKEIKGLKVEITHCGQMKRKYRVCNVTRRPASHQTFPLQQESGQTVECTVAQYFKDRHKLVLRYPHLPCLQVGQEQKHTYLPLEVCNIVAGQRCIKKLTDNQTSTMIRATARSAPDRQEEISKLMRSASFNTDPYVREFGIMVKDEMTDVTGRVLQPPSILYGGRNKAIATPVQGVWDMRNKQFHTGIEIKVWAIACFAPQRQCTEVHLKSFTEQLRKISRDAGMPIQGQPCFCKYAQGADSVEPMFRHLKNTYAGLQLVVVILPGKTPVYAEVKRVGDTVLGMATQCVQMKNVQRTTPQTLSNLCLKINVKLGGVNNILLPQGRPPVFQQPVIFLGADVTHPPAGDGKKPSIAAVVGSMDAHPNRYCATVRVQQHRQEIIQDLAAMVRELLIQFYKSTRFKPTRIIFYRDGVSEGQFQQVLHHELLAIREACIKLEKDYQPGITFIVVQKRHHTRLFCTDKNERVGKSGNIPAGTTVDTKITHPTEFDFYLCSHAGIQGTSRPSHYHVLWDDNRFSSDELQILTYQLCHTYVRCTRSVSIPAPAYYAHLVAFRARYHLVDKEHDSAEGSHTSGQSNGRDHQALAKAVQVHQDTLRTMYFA
UniProt O43572: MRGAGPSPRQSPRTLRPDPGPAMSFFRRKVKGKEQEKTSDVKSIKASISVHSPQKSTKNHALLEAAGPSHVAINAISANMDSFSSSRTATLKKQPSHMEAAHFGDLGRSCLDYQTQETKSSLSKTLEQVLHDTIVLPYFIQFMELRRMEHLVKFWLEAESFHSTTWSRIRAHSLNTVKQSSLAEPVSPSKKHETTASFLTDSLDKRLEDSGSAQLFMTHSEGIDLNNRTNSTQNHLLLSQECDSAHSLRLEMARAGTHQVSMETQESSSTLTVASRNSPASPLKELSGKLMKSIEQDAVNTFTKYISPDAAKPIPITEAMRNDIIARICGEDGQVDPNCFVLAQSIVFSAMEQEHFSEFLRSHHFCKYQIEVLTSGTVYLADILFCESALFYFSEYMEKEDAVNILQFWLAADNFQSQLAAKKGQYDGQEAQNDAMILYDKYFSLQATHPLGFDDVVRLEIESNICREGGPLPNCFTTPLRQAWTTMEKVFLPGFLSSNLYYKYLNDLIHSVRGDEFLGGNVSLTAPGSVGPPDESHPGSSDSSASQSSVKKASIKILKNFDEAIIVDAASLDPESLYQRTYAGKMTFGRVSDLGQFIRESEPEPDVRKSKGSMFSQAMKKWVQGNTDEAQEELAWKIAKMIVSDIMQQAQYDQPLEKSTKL
UniProt P35573: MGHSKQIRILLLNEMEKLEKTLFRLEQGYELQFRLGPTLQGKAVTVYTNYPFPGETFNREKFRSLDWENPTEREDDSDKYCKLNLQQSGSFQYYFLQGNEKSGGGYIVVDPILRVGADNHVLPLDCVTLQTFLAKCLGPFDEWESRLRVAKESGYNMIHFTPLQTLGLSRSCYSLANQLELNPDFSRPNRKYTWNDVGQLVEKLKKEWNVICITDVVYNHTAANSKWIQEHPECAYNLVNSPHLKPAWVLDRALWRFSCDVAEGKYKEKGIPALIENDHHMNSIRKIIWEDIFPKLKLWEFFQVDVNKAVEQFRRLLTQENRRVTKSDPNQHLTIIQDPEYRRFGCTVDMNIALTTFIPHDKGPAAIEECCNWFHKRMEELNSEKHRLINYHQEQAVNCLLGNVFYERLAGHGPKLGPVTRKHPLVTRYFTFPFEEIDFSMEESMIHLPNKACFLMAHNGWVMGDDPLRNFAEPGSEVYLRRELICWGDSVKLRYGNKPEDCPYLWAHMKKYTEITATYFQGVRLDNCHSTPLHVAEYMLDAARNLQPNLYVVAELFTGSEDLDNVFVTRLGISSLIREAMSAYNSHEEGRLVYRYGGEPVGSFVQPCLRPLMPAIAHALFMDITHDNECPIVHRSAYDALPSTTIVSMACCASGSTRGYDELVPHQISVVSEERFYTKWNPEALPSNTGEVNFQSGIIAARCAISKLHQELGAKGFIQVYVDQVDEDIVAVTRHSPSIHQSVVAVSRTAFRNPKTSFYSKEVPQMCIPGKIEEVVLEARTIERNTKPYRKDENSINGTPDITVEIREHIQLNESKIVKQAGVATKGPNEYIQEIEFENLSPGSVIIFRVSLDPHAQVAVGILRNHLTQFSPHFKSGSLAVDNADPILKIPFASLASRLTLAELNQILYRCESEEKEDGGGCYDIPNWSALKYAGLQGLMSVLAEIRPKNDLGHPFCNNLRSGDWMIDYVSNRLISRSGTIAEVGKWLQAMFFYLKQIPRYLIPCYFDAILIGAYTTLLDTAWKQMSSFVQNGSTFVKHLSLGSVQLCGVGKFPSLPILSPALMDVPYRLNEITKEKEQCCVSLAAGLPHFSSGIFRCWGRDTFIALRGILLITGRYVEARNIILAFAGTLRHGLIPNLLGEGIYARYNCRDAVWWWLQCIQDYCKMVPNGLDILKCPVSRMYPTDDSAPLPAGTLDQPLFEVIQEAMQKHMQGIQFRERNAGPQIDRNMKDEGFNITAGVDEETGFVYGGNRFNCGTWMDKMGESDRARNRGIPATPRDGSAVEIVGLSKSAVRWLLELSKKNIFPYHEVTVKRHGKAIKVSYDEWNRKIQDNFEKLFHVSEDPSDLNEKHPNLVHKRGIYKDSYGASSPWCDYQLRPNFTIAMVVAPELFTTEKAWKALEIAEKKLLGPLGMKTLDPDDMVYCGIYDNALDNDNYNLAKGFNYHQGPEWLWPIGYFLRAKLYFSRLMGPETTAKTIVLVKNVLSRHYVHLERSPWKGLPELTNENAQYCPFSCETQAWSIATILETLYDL
UniProt Q9UPQ3: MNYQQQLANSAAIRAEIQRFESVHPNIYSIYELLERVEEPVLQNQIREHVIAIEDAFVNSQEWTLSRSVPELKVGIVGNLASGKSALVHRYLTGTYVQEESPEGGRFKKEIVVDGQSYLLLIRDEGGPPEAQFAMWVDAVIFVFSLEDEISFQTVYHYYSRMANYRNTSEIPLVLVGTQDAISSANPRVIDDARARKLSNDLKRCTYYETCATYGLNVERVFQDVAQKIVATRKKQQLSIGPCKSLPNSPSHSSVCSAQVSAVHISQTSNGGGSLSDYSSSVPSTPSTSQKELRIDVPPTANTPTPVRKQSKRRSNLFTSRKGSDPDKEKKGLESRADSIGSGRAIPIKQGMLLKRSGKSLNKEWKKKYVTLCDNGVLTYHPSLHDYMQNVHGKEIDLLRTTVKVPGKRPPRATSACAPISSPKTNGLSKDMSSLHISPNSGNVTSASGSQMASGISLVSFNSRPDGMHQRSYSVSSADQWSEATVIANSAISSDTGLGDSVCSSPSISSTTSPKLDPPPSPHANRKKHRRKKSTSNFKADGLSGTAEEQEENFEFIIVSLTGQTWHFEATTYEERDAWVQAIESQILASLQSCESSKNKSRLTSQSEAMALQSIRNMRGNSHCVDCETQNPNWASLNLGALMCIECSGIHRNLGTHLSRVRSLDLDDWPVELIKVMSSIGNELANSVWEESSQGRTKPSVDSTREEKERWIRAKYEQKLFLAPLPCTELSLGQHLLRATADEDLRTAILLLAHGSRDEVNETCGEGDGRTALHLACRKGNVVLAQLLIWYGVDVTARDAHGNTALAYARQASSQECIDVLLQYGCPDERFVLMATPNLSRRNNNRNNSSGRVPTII
UniProt Q9H2P0: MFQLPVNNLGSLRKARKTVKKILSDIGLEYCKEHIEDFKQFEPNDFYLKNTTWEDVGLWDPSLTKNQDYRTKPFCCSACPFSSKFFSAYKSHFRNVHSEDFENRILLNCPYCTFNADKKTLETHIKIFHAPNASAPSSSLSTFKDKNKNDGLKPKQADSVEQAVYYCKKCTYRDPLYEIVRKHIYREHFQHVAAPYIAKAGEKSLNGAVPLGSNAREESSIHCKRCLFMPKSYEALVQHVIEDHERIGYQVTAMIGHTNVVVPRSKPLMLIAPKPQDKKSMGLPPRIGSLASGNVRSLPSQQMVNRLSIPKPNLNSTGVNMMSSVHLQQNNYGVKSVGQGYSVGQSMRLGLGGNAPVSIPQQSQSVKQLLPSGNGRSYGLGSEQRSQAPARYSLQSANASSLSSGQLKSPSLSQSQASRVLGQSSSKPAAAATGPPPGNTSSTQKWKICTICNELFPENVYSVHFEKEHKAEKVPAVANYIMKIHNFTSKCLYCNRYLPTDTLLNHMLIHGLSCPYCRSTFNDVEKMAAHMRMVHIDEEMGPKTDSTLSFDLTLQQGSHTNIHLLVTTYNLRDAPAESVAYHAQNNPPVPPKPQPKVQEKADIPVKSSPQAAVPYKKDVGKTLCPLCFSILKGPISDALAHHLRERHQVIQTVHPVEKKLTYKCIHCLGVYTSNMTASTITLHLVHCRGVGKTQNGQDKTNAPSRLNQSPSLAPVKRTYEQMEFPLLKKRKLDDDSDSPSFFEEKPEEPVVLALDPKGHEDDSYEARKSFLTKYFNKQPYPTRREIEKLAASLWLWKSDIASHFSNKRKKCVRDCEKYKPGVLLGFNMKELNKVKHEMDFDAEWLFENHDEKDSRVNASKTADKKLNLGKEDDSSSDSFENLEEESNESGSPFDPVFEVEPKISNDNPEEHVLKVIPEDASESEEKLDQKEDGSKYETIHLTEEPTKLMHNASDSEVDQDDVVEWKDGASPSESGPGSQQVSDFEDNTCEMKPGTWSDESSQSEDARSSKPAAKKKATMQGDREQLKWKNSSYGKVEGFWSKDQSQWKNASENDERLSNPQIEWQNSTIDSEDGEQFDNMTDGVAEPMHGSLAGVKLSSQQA
UniProt Q9ULC5: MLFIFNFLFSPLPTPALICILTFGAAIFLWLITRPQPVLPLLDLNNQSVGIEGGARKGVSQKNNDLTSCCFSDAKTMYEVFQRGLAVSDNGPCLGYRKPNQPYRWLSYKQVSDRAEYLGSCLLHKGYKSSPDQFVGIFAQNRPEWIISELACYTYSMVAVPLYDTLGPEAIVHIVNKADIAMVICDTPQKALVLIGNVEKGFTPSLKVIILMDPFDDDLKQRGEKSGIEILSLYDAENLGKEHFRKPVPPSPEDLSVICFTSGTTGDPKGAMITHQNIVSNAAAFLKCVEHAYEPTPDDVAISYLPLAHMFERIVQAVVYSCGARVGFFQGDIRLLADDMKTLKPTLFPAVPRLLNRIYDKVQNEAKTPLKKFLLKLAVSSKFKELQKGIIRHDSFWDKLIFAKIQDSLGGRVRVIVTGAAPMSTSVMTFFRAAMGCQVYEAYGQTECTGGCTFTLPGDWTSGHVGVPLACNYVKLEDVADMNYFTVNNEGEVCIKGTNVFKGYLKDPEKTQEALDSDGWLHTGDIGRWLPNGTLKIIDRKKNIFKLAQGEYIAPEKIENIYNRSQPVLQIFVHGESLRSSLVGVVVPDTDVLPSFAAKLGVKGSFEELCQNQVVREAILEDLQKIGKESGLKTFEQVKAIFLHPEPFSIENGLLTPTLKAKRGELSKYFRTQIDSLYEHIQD
UniProt Q9Y4W6: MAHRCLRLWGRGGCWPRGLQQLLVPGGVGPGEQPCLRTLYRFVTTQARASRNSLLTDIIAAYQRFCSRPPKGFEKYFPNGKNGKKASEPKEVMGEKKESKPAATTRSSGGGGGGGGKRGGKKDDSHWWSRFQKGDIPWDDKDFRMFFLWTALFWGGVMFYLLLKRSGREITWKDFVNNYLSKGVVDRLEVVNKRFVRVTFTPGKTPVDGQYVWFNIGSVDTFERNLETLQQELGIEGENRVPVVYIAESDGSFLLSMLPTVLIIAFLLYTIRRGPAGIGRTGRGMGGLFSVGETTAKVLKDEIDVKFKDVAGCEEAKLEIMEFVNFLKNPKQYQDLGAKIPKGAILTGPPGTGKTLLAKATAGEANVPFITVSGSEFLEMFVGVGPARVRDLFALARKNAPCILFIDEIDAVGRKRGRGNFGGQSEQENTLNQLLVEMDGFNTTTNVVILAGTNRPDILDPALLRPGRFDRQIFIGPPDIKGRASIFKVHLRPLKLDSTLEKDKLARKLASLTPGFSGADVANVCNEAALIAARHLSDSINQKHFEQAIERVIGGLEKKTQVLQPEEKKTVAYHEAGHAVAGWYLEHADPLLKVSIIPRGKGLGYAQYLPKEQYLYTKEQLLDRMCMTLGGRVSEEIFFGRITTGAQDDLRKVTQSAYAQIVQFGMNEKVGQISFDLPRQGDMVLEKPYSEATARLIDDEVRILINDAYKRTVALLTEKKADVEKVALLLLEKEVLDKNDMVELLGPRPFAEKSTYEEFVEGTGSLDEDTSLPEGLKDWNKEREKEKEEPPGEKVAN

What was measured:
Assay in all cases: log2 fold change, soluble protein after heating vs DMSO (PISA); higher = thermal stabilisation; K562 lysate, 10 uM; active = over 0.2 and 3.5 SD of the protein, either way, in both replicates (recomputed)
[1] = compound: CS(=O)(=O)CCNCc1ccc(-c2ccc3ncnc(Nc4ccc(OCc5cccc(F)c5)c(Cl)c4)c3c2)o1 [lapatinib]
Method in brief: (§1)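 Dounce homogenisation of K562 pellets in PBS pH 7.4 with 1 mM MgCl2 produced a crude extract, used at 1 mg/mL protein. Exposure to 10 μM compound lasted 30 min, and aliquots were then heated for 3 min across 48°C-58°C, pooled and brought to 0.5% NP-40 at 4°C. The supernatant after 21,000xg for 90 min was quantified by TMTpro 16plex LC-MS/MS with channel sums equalised. Duplicate values are given as log-two fold change in thermal stability relative to solvent controls.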

[2] = compound: CS(=O)(=O)N1CCN(Cc2cc3nc(-c4cccc5[nH]ncc45)nc(N4CCOCC4)c3s2)CC1 [pictilisib]
Method in brief: as §1

[3] = compound: C[C@@H](Oc1cc(-c2cnn(C3CCNCC3)c2)cnc1N)c1c(Cl)ccc(F)c1Cl [crizotinib]
Method in brief: as §1

[4] = compound: C[C@H](C1=CC=C(C=C1)C(=O)NC2=C3C=CNC3=NC=C2)N
Method in brief: as §1

[5] = compound: C[C@H](Nc1ncnc2nc[nH]c12)c1cc2cccc(Cl)c2c(=O)n1-c1ccccc1 [duvelisib]
Method in brief: as §1

[6] = compound: Cc1cc(Nc2cc(CN3CCOCC3)c3nc(C)c(Cc4ccc(Cl)cc4F)n3n2)n[nH]1 [gandotinib]
Method in brief: as §1

[7] = compound: Cc1cc(Nc2cc(N3CCN(C)CC3)nc(Sc3ccc(NC(=O)C4CC4)cc3)n2)n[nH]1 [tozasertib]
Method in brief: as §1

[8] = compound: Cc1ccc(-n2nc(C(C)(C)C)cc2NC(=O)Nc2ccc(OCCN3CCOCC3)c3ccccc23)cc1 [doramapimod]
Method in brief: as §1

[9] = compound: Cc1ccc(NC(=O)c2ccc(CN3CC[C@H](N(C)C)C3)c(C(F)(F)F)c2)cc1Nc1nccc(-c2cncnc2)n1 [bafetinib]
Method in brief: as §1

[10] = compound: Cc1cccc(CC(=O)N2CCc3c2ccc(-c2cn(C)c4ncnc(N)c24)c3F)n1
Method in brief: as §1

[11] = compound: Cc1cn(-c2cc(NC(=O)c3ccc(C)c(Nc4nccc(-c5cccnc5)n4)c3)cc(C(F)(F)F)c2)cn1 [nilotinib]
Method in brief: as §1

[12] = compound: Cc1nc(Nc2n[nH]c3c2CN(C(=O)N[C@H](CN(C)C)c2ccccc2)C3(C)C)c2sccc2n1
Method in brief: as §1

[13] = compound: Cc1nc(Nc2ncc(C(=O)Nc3c(C)cccc3Cl)s2)cc(N2CCN(CCO)CC2)n1 [dasatinib]
Method in brief: as §1

[14] = compound: Cc1ncc(-c2ccnc(Nc3ccc(S(C)(=O)=O)cc3)n2)n1C(C)C
Method in brief: as §1

[15] = compound: Cn1cc(-c2ccc3c(c2)CCN3C(=O)Cc2cccc(C(F)(F)F)c2)c2c(N)ncnc21
Method in brief: as §1

[16] = compound: Cn1cc(CNCC2CCN(c3ncc(C(=O)NO)cn3)CC2)c2ccccc21 [quisinostat]
Method in brief: as §1

[17] = compound: Cn1cncc1[C@@](N)(c1ccc(Cl)cc1)c1ccc2c(c1)c(-c1cccc(Cl)c1)cc(=O)n2C [tipifarnib]
Method in brief: as §1

[18] = compound: NC(=O)Nc1cc(-c2cccc(F)c2)sc1C(=O)N[C@H]1CCCNC1
Method in brief: as §1

[19] = compound: NC(=O)c1cnc(N[C@@H]2CCCC[C@@H]2N)nc1Nc1cccc(-n2nccn2)c1
Method in brief: as §1

[20] = compound: NC1(c2ccc(-c3nc4ccn5c(=O)[nH]nc5c4cc3-c3ccccc3)cc2)CCC1
Method in brief: as §1

Measured: log2 fold change

AGO2 (UniProt Q9UKV8)
inactive: [1] 0.006 | [2] -0.036 | [3] 0.042 | [4] 0.034 | [5] 0.011 | [6] -0.037 | [7] -0.029 | [8] -0.044 | [9] 0.009 | [10] -0.074 | [11] -0.084 | [12] 0 | [13] -0.004 | [14] 0.006 | [15] 0.001 | [16] -0.006 | [17] -0.001 | [18] 0.016 | [19] -0.004 | [20] 0.006

ACP1 (UniProt P24666)
inactive: [1] 0.049 | [2] -0.038 | [3] 0.111 | [4] -0.061 | [5] 0.075 | [6] -0.142 | [7] -0.013 | [8] -0.073 | [9] 0.016 | [10] -0.027 | [11] -0.015 | [12] 0.055 | [13] 0.013 | [14] 0.031 | [15] -0.028 | [16] 0.067 | [17] 0.003 | [18] -0.009 | [19] -0.003 | [20] -0.018

ACTR3 (UniProt P61158)
inactive: [1] 0.067 | [2] 0.007 | [3] 0.032 | [4] 0.004 | [5] -0.012 | [6] -0.021 | [7] -0.005 | [8] 0.025 | [9] 0.078 | [10] -0.004 | [11] 0.056 | [12] 0.051 | [13] 0.093 | [14] -0.017 | [15] -0.02 | [16] 0.02 | [17] -0.032 | [18] -0.016 | [19] 0.004 | [20] 0

AKAP10 (UniProt O43572)
inactive: [1] 0.059 | [2] 0.039 | [3] 0.006 | [5] 0.103 | [7] -0.146 | [8] 0.103 | [9] -0.042 | [11] 0.141 | [12] 0.121 | [13] -0.071 | [14] -0.043 | [15] -0.116 | [16] -0.038 | [17] -0.143 | [18] -0.081 | [19] -0.001 | [20] 0.077

AKIRIN2 (UniProt Q53H80)
inactive: [1] -0.029 | [3] 0.006 | [4] 0.037 | [5] -0.073 | [6] -0.068 | [7] -0.095 | [8] -0.017 | [10] -0.036 | [11] 0.011 | [12] -0.061 | [13] 0.062 | [14] -0.084 | [15] -0.09 | [16] 0.011 | [17] 0.044 | [18] -0.025 | [19] 0.066 | [20] 0.156

AGL (UniProt P35573)
inactive: [1] -0.004 | [2] 0 | [3] -0.019 | [4] 0.115 | [5] -0.013 | [6] -0.094 | [7] 0.014 | [8] 0.029 | [9] -0.037 | [10] -0.059 | [11] -0.024 | [12] -0.007 | [13] -0.027 | [14] -0.005 | [15] 0.028 | [16] -0.016 | [17] 0.016 | [18] 0.038 | [19] 0.016 | [20] -0.007

2 entries picked at random from those above, as already listed:
ACP1 (UniProt P24666)
inactive: [1] 0.049 | [2] -0.038 | [3] 0.111 | [4] -0.061 | [5] 0.075 | [6] -0.142 | [7] -0.013 | [8] -0.073 | [9] 0.016 | [10] -0.027 | [11] -0.015 | [12] 0.055 | [13] 0.013 | [14] 0.031 | [15] -0.028 | [16] 0.067 | [17] 0.003 | [18] -0.009 | [19] -0.003 | [20] -0.018

ACTR3 (UniProt P61158)
inactive: [1] 0.067 | [2] 0.007 | [3] 0.032 | [4] 0.004 | [5] -0.012 | [6] -0.021 | [7] -0.005 | [8] 0.025 | [9] 0.078 | [10] -0.004 | [11] 0.056 | [12] 0.051 | [13] 0.093 | [14] -0.017 | [15] -0.02 | [16] 0.02 | [17] -0.032 | [18] -0.016 | [19] 0.004 | [20] 0

(cont.)

ADAM15 (UniProt Q13444)
inactive: [1] -0.018 | [2] 0.041 | [3] -0.039 | [4] 0.008 | [5] 0.121 | [6] 0.041 | [8] 0.03 | [9] 0.108 | [10] 0.139 | [13] -0.415 | [15] 0.032 | [16] 0.01 | [18] -0.061 | [19] 0.111 | [20] 0.044

ACTB (UniProt C9JTX5)
inactive: [1] -0.103 | [2] -0.396 | [3] 0.014 | [4] -0.198 | [5] 0.094 | [6] -0.381 | [8] 0.098 | [9] -0.048 | [10] 0.061 | [11] -0.031 | [12] 0.111 | [13] -0.034 | [14] 0.163 | [15] -0.041 | [16] -0.047 | [17] 0.03 | [18] -0.098 | [19] -0.086

AGAP1 (UniProt Q9UPQ3)
inactive: [1] 0.005 | [2] -0.002 | [3] -0.034 | [4] -0.027 | [5] -0.109 | [6] 0.013 | [8] 0.015 | [9] -0.016 | [10] 0.076 | [11] 0.019 | [12] 0.025 | [13] -0.005 | [14] 0.007 | [15] 0.022 | [16] -0.045 | [17] -0.039 | [18] 0.066 | [19] -0.018 | [20] -0.041

ADNP (UniProt Q9H2P0)
inactive: [1] -0.029 | [2] 0.015 | [3] -0.018 | [4] -0.112 | [5] 0.016 | [6] 0.096 | [7] 0.028 | [8] -0.005 | [9] -0.03 | [10] 0.132 | [11] -0.004 | [12] 0.033 | [13] -0.051 | [14] 0.03 | [15] -0.009 | [16] -0.028 | [17] -0.009 | [18] 0.048 | [19] 0.007 | [20] 0.009

ACTB (UniProt C9JUM1)
inactive: [1] 0.091 | [2] -0.268 | [9] 0.197 | [11] 0.331 | [12] -0.094 | [14] 0.01 | [17] 0.173 | [19] -0.102

ACSL5 isoform 3 (UniProt Q9ULC5)
inactive: [1] -0.033 | [2] 0.011 | [3] -0.131 | [4] 0.104 | [5] 0 | [6] -0.09 | [8] 0.018 | [9] -0.056 | [10] -0.139 | [11] -0.023 | [12] 0.029 | [13] -0.037 | [14] 0.045 | [15] -0.047 | [16] 0.003 | [17] -0.043 | [18] 0.022 | [19] -0.036 | [20] 0.008

AFG3L2 (UniProt Q9Y4W6)
inactive: [1] -0.035 | [2] 0.02 | [3] -0.014 | [4] 0.067 | [5] 0.031 | [6] -0.203 | [7] 0.049 | [8] -0.009 | [9] -0.069 | [10] -0.048 | [11] -0.061 | [12] -0.018 | [13] -0.059 | [14] -0.029 | [15] 0.031 | [16] 0.059 | [17] -0.006 | [18] 0.029 | [19] 0.008 | [20] 0.009

ACTN2, A0A494C031
inactive: [1] -0.144 | [2] -0.16 | [3] -0.221 | [4] -0.064 | [6] 0.066 | [7] -0.067 | [8] 0.149 | [9] -0.067 | [10] 0.439 | [11] -0.037 | [12] 0.155 | [14] -0.078 | [16] -0.378 | [17] -0.085 | [18] 0 | [19] 0.164 | [20] -0.156
